Measurements taken from the supplement of paper PMC10849652.
Some of the results follow.

Amino acid sequences for entries named in this document (tags omitted). A change or cut given only in a name is not applied to a line headed by its entry.
UniProt P60033: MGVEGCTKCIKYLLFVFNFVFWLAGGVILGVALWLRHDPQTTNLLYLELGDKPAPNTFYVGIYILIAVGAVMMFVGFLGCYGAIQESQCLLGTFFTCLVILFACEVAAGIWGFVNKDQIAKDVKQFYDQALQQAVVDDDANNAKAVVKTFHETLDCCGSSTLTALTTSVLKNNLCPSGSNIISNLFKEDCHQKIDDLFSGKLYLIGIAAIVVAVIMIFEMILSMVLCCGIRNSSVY
UniProt Q6NZI2: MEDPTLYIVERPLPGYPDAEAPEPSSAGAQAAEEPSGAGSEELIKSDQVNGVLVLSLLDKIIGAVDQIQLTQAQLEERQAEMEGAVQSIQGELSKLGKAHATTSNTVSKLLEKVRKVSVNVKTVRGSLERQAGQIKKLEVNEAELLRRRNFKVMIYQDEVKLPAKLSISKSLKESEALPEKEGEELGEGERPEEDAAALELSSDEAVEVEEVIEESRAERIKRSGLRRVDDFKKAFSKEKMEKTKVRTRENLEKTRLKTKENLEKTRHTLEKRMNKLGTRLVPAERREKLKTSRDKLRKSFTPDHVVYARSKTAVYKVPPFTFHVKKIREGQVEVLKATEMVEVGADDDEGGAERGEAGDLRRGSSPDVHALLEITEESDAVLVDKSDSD
UniProt O75794: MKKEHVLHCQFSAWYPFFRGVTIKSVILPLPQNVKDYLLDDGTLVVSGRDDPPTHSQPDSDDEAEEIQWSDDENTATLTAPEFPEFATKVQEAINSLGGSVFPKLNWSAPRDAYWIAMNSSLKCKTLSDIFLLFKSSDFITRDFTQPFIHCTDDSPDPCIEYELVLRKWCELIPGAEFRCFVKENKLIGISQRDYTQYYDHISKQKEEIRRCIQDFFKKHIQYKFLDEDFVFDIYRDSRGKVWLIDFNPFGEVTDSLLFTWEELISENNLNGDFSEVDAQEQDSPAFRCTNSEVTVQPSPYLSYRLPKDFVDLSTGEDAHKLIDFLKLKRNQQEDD
UniProt Q7L3B6: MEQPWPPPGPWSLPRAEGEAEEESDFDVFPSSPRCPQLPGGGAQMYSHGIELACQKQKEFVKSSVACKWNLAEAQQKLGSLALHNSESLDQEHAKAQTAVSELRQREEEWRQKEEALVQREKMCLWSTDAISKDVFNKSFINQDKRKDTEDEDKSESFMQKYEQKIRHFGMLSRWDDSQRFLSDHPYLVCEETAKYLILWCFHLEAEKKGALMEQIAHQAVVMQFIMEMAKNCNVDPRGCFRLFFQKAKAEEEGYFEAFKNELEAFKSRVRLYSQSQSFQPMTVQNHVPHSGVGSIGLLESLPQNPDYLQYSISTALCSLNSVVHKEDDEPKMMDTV
UniProt P16152: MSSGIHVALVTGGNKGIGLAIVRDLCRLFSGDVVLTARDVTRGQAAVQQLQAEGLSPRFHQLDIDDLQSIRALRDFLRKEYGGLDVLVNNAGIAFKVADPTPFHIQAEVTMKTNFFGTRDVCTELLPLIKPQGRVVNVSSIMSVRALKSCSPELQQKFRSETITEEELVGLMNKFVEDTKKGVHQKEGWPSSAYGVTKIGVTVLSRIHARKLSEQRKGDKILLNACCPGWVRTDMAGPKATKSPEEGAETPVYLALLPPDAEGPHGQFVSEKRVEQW
UniProt Q9P031: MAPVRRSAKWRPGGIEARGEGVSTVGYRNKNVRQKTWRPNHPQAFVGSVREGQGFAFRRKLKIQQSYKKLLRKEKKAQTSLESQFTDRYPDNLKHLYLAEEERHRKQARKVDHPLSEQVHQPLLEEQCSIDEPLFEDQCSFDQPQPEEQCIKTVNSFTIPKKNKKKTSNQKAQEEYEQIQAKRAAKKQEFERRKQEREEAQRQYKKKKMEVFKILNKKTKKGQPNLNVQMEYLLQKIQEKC
UniProt P19397: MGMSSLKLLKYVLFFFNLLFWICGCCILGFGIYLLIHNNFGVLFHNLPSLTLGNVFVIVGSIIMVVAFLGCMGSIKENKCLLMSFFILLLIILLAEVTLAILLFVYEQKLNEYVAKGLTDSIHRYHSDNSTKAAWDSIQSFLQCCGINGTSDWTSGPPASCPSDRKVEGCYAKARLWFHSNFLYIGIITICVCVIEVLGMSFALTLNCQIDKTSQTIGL
UniProt A6NHX0: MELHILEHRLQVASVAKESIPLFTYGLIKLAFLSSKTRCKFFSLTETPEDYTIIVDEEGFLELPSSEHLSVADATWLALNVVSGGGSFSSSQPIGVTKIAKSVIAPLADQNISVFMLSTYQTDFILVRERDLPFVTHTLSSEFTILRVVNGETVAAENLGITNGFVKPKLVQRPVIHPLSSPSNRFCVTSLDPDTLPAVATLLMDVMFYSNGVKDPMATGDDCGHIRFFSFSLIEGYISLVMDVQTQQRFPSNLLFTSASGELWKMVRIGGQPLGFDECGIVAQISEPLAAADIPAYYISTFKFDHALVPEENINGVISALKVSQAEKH
UniProt P49427: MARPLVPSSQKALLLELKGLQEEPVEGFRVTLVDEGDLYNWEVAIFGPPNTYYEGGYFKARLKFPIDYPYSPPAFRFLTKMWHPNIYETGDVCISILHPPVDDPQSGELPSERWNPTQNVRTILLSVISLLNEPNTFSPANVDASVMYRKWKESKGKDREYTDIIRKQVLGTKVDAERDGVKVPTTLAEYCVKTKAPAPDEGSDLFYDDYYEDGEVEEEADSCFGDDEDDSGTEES
UniProt Q8NHZ8, whole entry, looked up: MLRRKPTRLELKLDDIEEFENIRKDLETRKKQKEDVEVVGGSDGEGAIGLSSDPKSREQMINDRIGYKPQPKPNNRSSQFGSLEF
UniProt Q92851: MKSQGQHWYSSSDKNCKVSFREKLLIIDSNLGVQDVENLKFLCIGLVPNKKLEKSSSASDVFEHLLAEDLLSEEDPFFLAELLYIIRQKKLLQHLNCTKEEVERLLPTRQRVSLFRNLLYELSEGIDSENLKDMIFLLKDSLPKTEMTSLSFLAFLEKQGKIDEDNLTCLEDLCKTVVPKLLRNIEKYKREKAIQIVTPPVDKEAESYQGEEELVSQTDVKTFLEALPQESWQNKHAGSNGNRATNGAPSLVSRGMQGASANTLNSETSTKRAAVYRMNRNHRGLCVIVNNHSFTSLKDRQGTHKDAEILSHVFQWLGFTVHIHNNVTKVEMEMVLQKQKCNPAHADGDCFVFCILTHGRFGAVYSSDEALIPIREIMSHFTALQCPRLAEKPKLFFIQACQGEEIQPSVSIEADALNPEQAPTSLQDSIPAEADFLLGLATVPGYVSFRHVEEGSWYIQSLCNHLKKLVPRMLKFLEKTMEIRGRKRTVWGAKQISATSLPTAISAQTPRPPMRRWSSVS
UniProt Q8IWY9: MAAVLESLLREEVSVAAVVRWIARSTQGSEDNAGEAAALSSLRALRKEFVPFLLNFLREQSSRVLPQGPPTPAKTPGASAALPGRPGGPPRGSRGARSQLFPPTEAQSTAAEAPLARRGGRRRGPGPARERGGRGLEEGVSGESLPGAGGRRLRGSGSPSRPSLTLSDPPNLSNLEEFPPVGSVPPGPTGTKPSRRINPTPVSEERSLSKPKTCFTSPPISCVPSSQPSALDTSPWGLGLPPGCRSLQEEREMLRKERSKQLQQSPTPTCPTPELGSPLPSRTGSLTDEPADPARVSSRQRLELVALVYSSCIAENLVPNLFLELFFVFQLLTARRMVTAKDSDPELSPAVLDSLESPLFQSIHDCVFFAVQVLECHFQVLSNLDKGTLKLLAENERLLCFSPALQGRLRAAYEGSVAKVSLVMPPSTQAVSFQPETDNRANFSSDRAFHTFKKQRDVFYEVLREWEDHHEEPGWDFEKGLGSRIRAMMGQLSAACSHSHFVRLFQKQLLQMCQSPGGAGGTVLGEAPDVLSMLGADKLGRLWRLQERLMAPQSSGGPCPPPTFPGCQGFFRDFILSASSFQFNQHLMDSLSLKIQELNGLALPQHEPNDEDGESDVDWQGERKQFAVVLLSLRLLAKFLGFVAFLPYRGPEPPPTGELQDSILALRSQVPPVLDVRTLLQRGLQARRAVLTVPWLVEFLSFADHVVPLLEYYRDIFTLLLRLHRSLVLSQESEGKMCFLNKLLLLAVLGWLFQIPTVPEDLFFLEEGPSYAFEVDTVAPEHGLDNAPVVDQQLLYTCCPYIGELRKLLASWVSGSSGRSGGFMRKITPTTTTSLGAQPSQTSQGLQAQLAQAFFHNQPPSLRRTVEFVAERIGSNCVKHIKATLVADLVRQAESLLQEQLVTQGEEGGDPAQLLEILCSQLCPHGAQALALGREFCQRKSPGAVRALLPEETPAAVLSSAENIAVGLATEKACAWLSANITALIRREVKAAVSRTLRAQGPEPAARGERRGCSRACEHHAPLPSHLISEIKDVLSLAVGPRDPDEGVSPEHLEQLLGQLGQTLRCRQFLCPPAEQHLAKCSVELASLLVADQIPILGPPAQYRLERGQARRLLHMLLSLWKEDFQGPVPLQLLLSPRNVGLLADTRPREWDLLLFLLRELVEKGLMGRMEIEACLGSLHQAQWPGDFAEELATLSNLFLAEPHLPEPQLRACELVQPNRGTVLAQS
UniProt P45973, whole entry, looked up: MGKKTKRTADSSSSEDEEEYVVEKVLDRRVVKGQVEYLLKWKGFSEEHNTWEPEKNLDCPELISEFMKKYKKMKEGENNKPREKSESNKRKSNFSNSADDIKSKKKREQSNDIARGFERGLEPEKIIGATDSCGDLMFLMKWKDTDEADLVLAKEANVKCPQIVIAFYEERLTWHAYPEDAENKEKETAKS
UniProt P14209: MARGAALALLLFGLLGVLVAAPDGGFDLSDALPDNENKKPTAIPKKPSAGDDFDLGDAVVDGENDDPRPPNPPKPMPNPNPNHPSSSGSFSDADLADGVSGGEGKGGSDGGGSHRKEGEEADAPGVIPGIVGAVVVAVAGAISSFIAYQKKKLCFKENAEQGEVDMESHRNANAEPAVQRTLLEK
UniProt P42575: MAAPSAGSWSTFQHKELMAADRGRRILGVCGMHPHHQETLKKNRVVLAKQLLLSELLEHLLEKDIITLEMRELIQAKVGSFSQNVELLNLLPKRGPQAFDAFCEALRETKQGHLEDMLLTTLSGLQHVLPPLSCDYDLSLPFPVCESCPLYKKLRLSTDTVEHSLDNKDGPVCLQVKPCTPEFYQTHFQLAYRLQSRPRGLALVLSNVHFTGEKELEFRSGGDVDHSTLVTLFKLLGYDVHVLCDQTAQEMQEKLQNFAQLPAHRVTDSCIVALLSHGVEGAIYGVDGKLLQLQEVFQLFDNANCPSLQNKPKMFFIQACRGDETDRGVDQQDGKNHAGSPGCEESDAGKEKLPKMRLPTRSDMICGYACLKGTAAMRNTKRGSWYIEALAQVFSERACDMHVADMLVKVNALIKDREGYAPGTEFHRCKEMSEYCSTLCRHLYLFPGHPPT
UniProt P24863: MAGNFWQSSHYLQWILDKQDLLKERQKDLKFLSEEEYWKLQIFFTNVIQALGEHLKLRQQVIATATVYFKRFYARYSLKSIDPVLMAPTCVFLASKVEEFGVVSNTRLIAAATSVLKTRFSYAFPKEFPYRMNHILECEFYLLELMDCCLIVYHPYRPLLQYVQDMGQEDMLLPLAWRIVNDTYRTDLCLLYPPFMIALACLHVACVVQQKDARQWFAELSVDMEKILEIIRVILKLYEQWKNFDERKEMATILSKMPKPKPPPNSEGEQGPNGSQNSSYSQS
UniProt Q9BSQ5: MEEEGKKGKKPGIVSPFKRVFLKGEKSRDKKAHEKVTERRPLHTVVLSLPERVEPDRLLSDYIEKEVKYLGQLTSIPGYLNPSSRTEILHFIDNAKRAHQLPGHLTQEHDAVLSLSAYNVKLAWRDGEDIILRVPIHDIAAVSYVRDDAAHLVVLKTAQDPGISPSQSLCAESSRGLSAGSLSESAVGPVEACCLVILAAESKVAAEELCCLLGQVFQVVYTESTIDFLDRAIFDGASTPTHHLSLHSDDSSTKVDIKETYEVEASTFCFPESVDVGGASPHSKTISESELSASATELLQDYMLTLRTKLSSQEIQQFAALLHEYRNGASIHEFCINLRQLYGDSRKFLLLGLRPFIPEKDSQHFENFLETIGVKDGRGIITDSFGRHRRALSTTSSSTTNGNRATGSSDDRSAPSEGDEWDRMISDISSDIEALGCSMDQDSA

Assays:
Assay in all cases: log2 fold change, soluble protein after heating vs DMSO (PISA); higher = thermal stabilisation; K562 cells, 10 uM, 30 min; active = over 0.2 and 3.5 SD of the protein, either way, in both replicates (recomputed)
[1] = compound: COC1=CC=C(C=C1)CN2C=CC3=C2C=C(C=C3)C(=O)NO
Method in brief: (§1)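 Aliquots of K562 cells (2×10^6 cells/mL) treated with 10 μM compound for 30 min were heated for 3 min over 48°C-58°C. After pooling and extraction in PBS with 0.5% NP-40 at 4°C, soluble protein from a 21,000xg, 90 min spin was quantified by TMTpro 16plex LC-MS/MS with channel sums equalised. Thermal stability is expressed against control samples, from duplicates, as a log2 fold change.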

filanesib = compound: CON(C)C(=O)N1N=C(c2cc(F)ccc2F)S[C@@]1(CCCN)c1ccccc1 [filanesib]
Method in brief: as §1

zotarolimus = compound: CO[C@H]1C[C@@H]2CC[C@@H](C)[C@@](O)(O2)C(=O)C(=O)N2CCCC[C@H]2C(=O)O[C@H]([C@H](C)C[C@@H]2CC[C@H](n3cnnn3)[C@H](OC)C2)CC(=O)[C@H](C)/C=C(\C)[C@@H](O)[C@@H](OC)C(=O)[C@H](C)C[C@H](C)/C=C/C=C/C=C/1C [zotarolimus]
Method in brief: as §1

idasanutlin = compound: COc1cc(C(=O)O)ccc1NC(=O)[C@@H]1N[C@@H](CC(C)(C)C)[C@](C#N)(c2ccc(Cl)cc2F)[C@H]1c1cccc(Cl)c1F [idasanutlin]
Method in brief: as §1

alisertib = compound: COc1cc(Nc2ncc3c(n2)-c2ccc(Cl)cc2C(c2c(F)cccc2OC)=NC3)ccc1C(=O)O [alisertib]
Method in brief: as §1

[2] = compound: COc1cc2nc(-c3cc(F)ccc3O)nc(N[C@@H]3CNC[C@H]3C(C)(C)O)c2cc1OC
Method in brief: as §1

gefitinib = compound: COc1cc2ncnc(Nc3ccc(F)c(Cl)c3)c2cc1OCCCN1CCOCC1 [gefitinib]
Method in brief: as §1

[3] = compound: COc1cccc2cc(-c3nc([C@H]4CC[C@H](C(=O)O)CC4)n4ncnc(N)c34)[nH]c12
Method in brief: as §1

lapatinib = compound: CS(=O)(=O)CCNCc1ccc(-c2ccc3ncnc(Nc4ccc(OCc5cccc(F)c5)c(Cl)c4)c3c2)o1 [lapatinib]
Method in brief: as §1

pictilisib = compound: CS(=O)(=O)N1CCN(Cc2cc3nc(-c4cccc5[nH]ncc45)nc(N4CCOCC4)c3s2)CC1 [pictilisib]
Method in brief: as §1

[4] = compound: CS(=O)(=O)c1ccc(-c2cnc(N)c(C(=O)Nc3ccccc3)n2)cc1
Method in brief: as §1

crizotinib = compound: C[C@@H](Oc1cc(-c2cnn(C3CCNCC3)c2)cnc1N)c1c(Cl)ccc(F)c1Cl [crizotinib]
Method in brief: as §1

[5] = compound: C[C@@H]1COCCN1C2=NC(=NC(=C2)C3(CC3)S(=O)(=O)C)C4=C5C=CNC5=CC=C4
Method in brief: as §1

[6] = compound: C[C@H](C1=CC=C(C=C1)C(=O)NC2=C3C=CNC3=NC=C2)N
Method in brief: as §1

gandotinib = compound: Cc1cc(Nc2cc(CN3CCOCC3)c3nc(C)c(Cc4ccc(Cl)cc4F)n3n2)n[nH]1 [gandotinib]
Method in brief: as §1

[7] = compound: Cc1cc(SCc2sc(-c3ccc(C(F)(F)F)cc3)nc2C)ccc1OCC(=O)O
Method in brief: as §1

doramapimod = compound: Cc1ccc(-n2nc(C(C)(C)C)cc2NC(=O)Nc2ccc(OCCN3CCOCC3)c3ccccc23)cc1 [doramapimod]
Method in brief: as §1

ispinesib = compound: Cc1ccc(C(=O)N(CCCN)[C@@H](c2nc3cc(Cl)ccc3c(=O)n2Cc2ccccc2)C(C)C)cc1 [ispinesib]
Method in brief: as §1

duvelisib = compound: C[C@H](Nc1ncnc2nc[nH]c12)c1cc2cccc(Cl)c2c(=O)n1-c1ccccc1 [duvelisib]
Method in brief: as §1

tozasertib = compound: Cc1cc(Nc2cc(N3CCN(C)CC3)nc(Sc3ccc(NC(=O)C4CC4)cc3)n2)n[nH]1 [tozasertib]
Method in brief: as §1

Measured: log2 fold change

CD81 (UniProt P60033)
inactive: [1] -0.051 | filanesib 0.049 | zotarolimus 0.003 | idasanutlin -0.014 | alisertib -0.007 | [2] 0.008 | gefitinib 0.043 | [3] 0.052 | lapatinib -0.032 | pictilisib 0.138 | [4] -0.03 | crizotinib 0.162 | [5] 0.107 | [6] -0.232 | gandotinib 0.019 | [7] -0.084 | doramapimod -0.025 | ispinesib 0.207

CAVIN1 (UniProt Q6NZI2)
inactive: [1] -0.012 | filanesib 0.109 | zotarolimus 0 | idasanutlin 0.15 | alisertib -0.098 | [2] -0.107 | gefitinib -0.1 | [3] -0.159 | lapatinib 0.089 | pictilisib -0.094 | [4] -0.023 | crizotinib -0.046 | [5] -0.34 | [6] 0.174 | gandotinib 0.145 | [7] 0.06 | doramapimod 0.135 | ispinesib 0.067

CDC123 (UniProt O75794)
active: crizotinib -0.246
inactive: [1] 0.005 | filanesib -0.043 | zotarolimus -0.016 | idasanutlin 0.032 | alisertib -0.048 | [2] 0.024 | gefitinib -0.057 | [3] 0.001 | lapatinib 0.017 | pictilisib -0.027 | [4] -0.001 | [5] 0.074 | [6] -0.032 | gandotinib 0.044 | [7] 0.115 | doramapimod 0.003 | ispinesib 0.013

CDC37L1 (UniProt Q7L3B6)
inactive: [1] -0.027 | filanesib 0.047 | zotarolimus -0.057 | idasanutlin -0.031 | alisertib -0.009 | [2] -0.106 | gefitinib 0.029 | [3] -0.037 | lapatinib 0.034 | pictilisib -0.051 | [4] 0.007 | crizotinib 0.036 | [5] 0.148 | [6] -0.013 | gandotinib -0.091 | [7] 0.117 | doramapimod -0.036 | ispinesib 0.005

CBR1 (UniProt P16152)
inactive: [1] 0 | filanesib -0.024 | zotarolimus 0.071 | idasanutlin -0.074 | alisertib -0.036 | [2] 0.001 | gefitinib -0.004 | [3] 0.028 | lapatinib 0.037 | pictilisib -0.035 | [4] 0.006 | crizotinib 0.048 | [5] 0.052 | [6] -0.163 | gandotinib 0.034 | [7] -0.024 | doramapimod 0.003 | ispinesib 0.194

CCDC59 (UniProt Q9P031)
inactive: [1] 0.024 | filanesib 0.301 | zotarolimus -0.008 | idasanutlin 0.225 | alisertib -0.124 | [2] -0.013 | gefitinib -0.066 | [3] -0.054 | lapatinib -0.034 | pictilisib -0.234 | [4] 0.09 | crizotinib -0.084 | [5] 0 | [6] 0.389 | gandotinib 0.186 | [7] 0.006 | doramapimod 0.164 | ispinesib -0.136

CD53 (UniProt P19397)
inactive: [1] -0.1 | filanesib 0.025 | zotarolimus -0.022 | idasanutlin 0.084 | alisertib -0.04 | [2] 0.154 | gefitinib 0.053 | [3] 0.102 | lapatinib -0.208 | pictilisib 0.276 | [4] 0.101 | crizotinib 0.047 | [5] 0.005 | [6] -0.084 | gandotinib -0.016 | [7] -0.11 | doramapimod 0.103 | ispinesib 0.023

CASTOR2 (UniProt A6NHX0)
inactive: [1] 0.04 | filanesib -0.042 | zotarolimus -0.038 | idasanutlin 0.027 | alisertib -0.08 | [2] 0.194 | gefitinib -0.053 | [3] 0.063 | lapatinib -0.108 | pictilisib -0.042 | [4] -0.053 | crizotinib 0.045 | [5] 0.088 | [6] -0.022 | gandotinib -0.018 | [7] 0.008 | doramapimod 0.037 | ispinesib 0.018

2 neighbouring entries already listed:
CDC37L1 (UniProt Q7L3B6)
inactive: [1] -0.027 | filanesib 0.047 | zotarolimus -0.057 | idasanutlin -0.031 | alisertib -0.009 | [2] -0.106 | gefitinib 0.029 | [3] -0.037 | lapatinib 0.034 | pictilisib -0.051 | [4] 0.007 | crizotinib 0.036 | [5] 0.148 | [6] -0.013 | gandotinib -0.091 | [7] 0.117 | doramapimod -0.036 | ispinesib 0.005

CBR1 (UniProt P16152)
inactive: [1] 0 | filanesib -0.024 | zotarolimus 0.071 | idasanutlin -0.074 | alisertib -0.036 | [2] 0.001 | gefitinib -0.004 | [3] 0.028 | lapatinib 0.037 | pictilisib -0.035 | [4] 0.006 | crizotinib 0.048 | [5] 0.052 | [6] -0.163 | gandotinib 0.034 | [7] -0.024 | doramapimod 0.003 | ispinesib 0.194

Later entries:

CDC34 (UniProt P49427)
inactive: [1] -0.268 | filanesib -0.004 | zotarolimus -0.033 | idasanutlin -0.046 | alisertib 0.042 | [2] 0.177 | gefitinib 0.041 | [3] -0.027 | lapatinib -0.081 | pictilisib 0.033 | [4] 0.007 | crizotinib -0.121 | [5] 0.117 | [6] 0.146 | duvelisib 0.067 | gandotinib -0.059 | tozasertib 0.153 | [7] 0.121 | doramapimod 0.169 | ispinesib -0.19

CDC26 (UniProt Q8NHZ8)
inactive: [1] -0.031 | filanesib 0.085 | zotarolimus -0.011 | idasanutlin -0.053 | alisertib -0.023 | [2] 0 | gefitinib 0.003 | [3] -0.017 | lapatinib -0.023 | pictilisib -0.125 | [4] 0.036 | crizotinib 0.153 | [5] 0.016 | [6] 0.212 | gandotinib -0.033 | [7] -0.021 | doramapimod -0.017 | ispinesib 0.406

CASP10 isoform 4 (UniProt Q92851)
inactive: [1] 0.012 | filanesib 0.078 | zotarolimus 0.062 | idasanutlin -0.049 | alisertib 0.009 | [2] -0.089 | gefitinib -0.036 | [3] -0.128 | lapatinib -0.047 | pictilisib 0.079 | [4] 0.006 | crizotinib -0.102 | [5] 0.015 | [6] -0.137 | gandotinib -0.128 | [7] 0.201 | doramapimod 0.028 | ispinesib -0.075

CDAN1 (UniProt Q8IWY9)
inactive: [1] -0.032 | filanesib -0.017 | zotarolimus 0.008 | idasanutlin -0.088 | alisertib -0.041 | [2] -0.044 | gefitinib -0.034 | [3] 0.185 | lapatinib 0.005 | pictilisib 0.011 | [4] 0.058 | crizotinib 0.024 | [5] 0.175 | [6] 0.066 | gandotinib -0.054 | [7] 0.008 | doramapimod 0.034 | ispinesib -0.02

CBX5 (UniProt P45973)
inactive: [1] 0.119 | filanesib -0.046 | zotarolimus 0.029 | idasanutlin -0.014 | alisertib -0.062 | [2] 0.003 | gefitinib 0.024 | [3] 0.022 | lapatinib 0.019 | pictilisib 0.106 | [4] 0.012 | crizotinib 0.128 | [5] -0.037 | [6] -0.058 | gandotinib -0.015 | [7] 0.059 | doramapimod -0.045 | ispinesib 0.092

CD99 (UniProt P14209)
inactive: [1] -0.017 | filanesib 0.16 | zotarolimus -0.034 | idasanutlin 0.15 | alisertib -0.075 | [2] 0.107 | gefitinib 0.001 | [3] 0.03 | lapatinib -0.023 | pictilisib 0.003 | [4] 0.14 | crizotinib 0.157 | [5] 0.124 | [6] -0.034 | gandotinib 0.059 | tozasertib -0.013 | doramapimod -0.003

CASP2 (UniProt P42575)
inactive: [1] 0.122 | filanesib -0.02 | zotarolimus 0.047 | idasanutlin -0.067 | alisertib -0.019 | [2] -0.245 | gefitinib -0.082 | [3] 0.072 | pictilisib 0.069 | [4] 0.004 | crizotinib -0.062 | [5] 0.023 | [6] -0.002 | gandotinib -0.071 | [7] 0.05 | doramapimod 0.077 | ispinesib 0.039
active: lapatinib -0.323

CCNC (UniProt P24863)
inactive: [1] -0.198 | filanesib 0.013 | zotarolimus -0.026 | idasanutlin -0.156 | alisertib -0.036 | [3] 0.013 | pictilisib 0.079 | [4] 0.051 | crizotinib -0.004 | [5] 0.027 | [6] 0.247 | gandotinib -0.088 | [7] 0.018 | ispinesib 0.059
active: doramapimod 0.373

CCM2 isoform 2 (UniProt Q9BSQ5)
inactive: [1] -0.093 | filanesib 0.026 | zotarolimus 0.057 | alisertib -0.04 | [2] 0.154 | [3] 0.056 | lapatinib 0.006 | pictilisib 0.022 | [4] 0.088 | crizotinib -0.022 | [5] -0.016 | [6] 0.003 | gandotinib 0.026 | [7] -0.067 | doramapimod 0.013 | ispinesib -0.043

CDC37 (UniProt K7EL68)
inactive: [1] -0.054 | filanesib 0.018 | zotarolimus 0.104 | idasanutlin -0.132 | [2] 0.021 | gefitinib -0.03 | lapatinib -0.031 | [4] -0.002 | crizotinib 0.056 | [5] 0.032 | [6] 0.152 | duvelisib 0.165 | [7] -0.139 | doramapimod 0.052 | ispinesib 0.063
